Reference: PMC12454907
Results are given in words; binding and its absence hold for the method and conditions named. Binding seen in cells or lysates may run through a third protein. Binding calls can cover weak binding; strength is not graded here. Where a sequence is shown, tags or fusion partners need not be part of it.

Assays:
Assay in all cases: pull-down; GST fusion or GST on glutathione agarose resin, induced His-OsSAP5 added, 2 h at 4°C, 25 mM Tris-HCl pH 8.0, 150 mM NaCl, 1/2,000 NP-40, 1/20 glycerol; blots with anti-His and anti-GST
[1] = biological target: GST-OsGF14e (rice (Oryza sativa))
[2] = biological target: GST-OsGF14b (rice (Oryza sativa))
[3] = biological target: GST-OsGF14d (rice (Oryza sativa))

Measured: binding

B1: His-OsSAP5 (protein, UniProt Q6H754 1-154)
chain: MAEEQRWQEGCHRLCANNCGFFGSPATLDLCSKCYRDRQGRESTAPVVVAAAASACPATHPSSPSSSSCPAFLPSSTAAEAGVVVAAVAKASRCASCRKRVGLTGFACRCGGTFCGAHRYPERHACGFDFKAAGRDAIARANPLIKGDKLKDKI
binds: all assays above
